Literature values in patent US20230407373A1 (priority 2020, published 2023).
For at least one compound, name, drawing or mass did not settle the structure.

Test system: SARS-CoV-2-infected A549-ACE2 cells
Details: infected cells (MOI=2.0) treated with ruxolitinib; cited from earlier work

## N#CC[C@H](C1CCCC1)n1cc(-c2ncnc3[nH]ccc23)cn1 [ruxolitinib]
  expression of host factors of the SARS-CoV-2 RNA interactome: suppressed the expression of 5 host factors (MOV10, PARP12, SHFL, TRIM25, and ZC3HAV1)
